# Strings that start with PEPTIDE1 are HELM notation: dots part the residues, brackets hold end groups and non-standard residues.
# Experiment: general procedure: Fmoc solid-phase peptide synthesis
# Details: whole synthesis, MALDI-TOF MS
substance,measurement,value
PEPTIDE1{G.R.K.K.R.R.Q.R.R.R.P.P.Q.P.D.A.L.K.S.R.T.L.R}$$$$V2.0,final ms purity,>95%

# — publication PMC4479448 (PLoS ONE, 2015)
